This is an account of results in paper PMC7819943, “Rice protein-binding microarrays: a tool to detect cis-acting elements near promoter regions in rice”.

This is one part of the list.

This experiment concerns the target T1, OsSMF1 (Oryza sativa, UniProt Q6ZLB0 1-436).
T1 sequence: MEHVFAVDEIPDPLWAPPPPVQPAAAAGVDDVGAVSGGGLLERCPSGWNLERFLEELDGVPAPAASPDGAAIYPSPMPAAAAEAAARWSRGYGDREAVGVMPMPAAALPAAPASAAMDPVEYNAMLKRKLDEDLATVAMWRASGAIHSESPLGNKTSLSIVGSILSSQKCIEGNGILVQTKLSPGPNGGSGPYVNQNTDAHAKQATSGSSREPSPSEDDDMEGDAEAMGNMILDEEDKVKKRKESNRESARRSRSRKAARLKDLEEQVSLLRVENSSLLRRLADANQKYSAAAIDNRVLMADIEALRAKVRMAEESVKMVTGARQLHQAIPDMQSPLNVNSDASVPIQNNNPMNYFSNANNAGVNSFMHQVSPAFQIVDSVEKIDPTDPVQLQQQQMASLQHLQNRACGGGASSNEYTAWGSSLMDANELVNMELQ
The experiment is described as follows: protein-binding microarray (RPBM); PBS, 2% BSA, 51.3 ng/ul salmon testes DNA, 50 uM zinc acetate, 200 nM TF, 25 C, 1 h; high values mean tight binding. Particulars: protein: recombinant; tags: N-terminal polyhistidine and DsRed monomer fusion (pET32a); chain copies: 2; label: CyDye5-dUTP incorporated in the synthesized complementary strand; 3' TTTTT single-stranded linker to array surface; dsDNA, one strand shown. The method, boiled down:
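An Axon 4000B scanner gave the binding signal as per-feature fluorescence intensity in arbitrary units. This followed washing of a custom Agilent array that had been incubated for 1 h at 25 °C with 200 nM protein in PBS, 2% BSA, salmon testes DNA and 50 µM zinc acetate. The proteins were transcription factors fused at the N-terminus to polyhistidine and DsRed, expressed in E. coli BL21-CodonPlus and purified on Ni–NTA.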
With “ACGGCGGCAGCCAGCTCGACCTCCCCACCGCCCATCTGGTCGGAGTCACCTAGTGCAG”, the binding signal was 3420 fluorescence intensity (a.u.).
The value for “ATCGGGTTGTTGTTGTGTCATTCTCTGCCAAATGGGCCAGCGGAGTCACCTAGTGCAG” was 4600 fluorescence intensity (a.u.); that for “TGGGTGTTGACGTGTCCCGAGTGGCGGCCCTTCCGCACCCCGGAGTCACCTAGTGCAG” was 14500 fluorescence intensity (a.u.).
For “CATCACGCGCCGTATAAAGCGACCTTTGCCTGGCTACACGCGGAGTCACCTAGTGCAG”, the binding signal was 28700 fluorescence intensity (a.u.).
Consider “AGATGCAATCGATGATGTCAGCAGTAGTAGTAGTACAAACCGGAGTCACCTAGTGCAG”, for which the binding signal was 10500 fluorescence intensity (a.u.).
In the case of “AAAACAAAGGACAAACGCAGGCGCTTGCACACTCTATCTTCGGAGTCACCTAGTGCAG” it was 4220 fluorescence intensity (a.u.); in that of “CTCCAAGCCAAGCCGGACGCGGACGCCACCGCCCTCGCCTCGGAGTCACCTAGTGCAG”, 3150 fluorescence intensity (a.u.); in that of “ATCCTCGCATAGATCTGGCGTAGCAGCGGTGCGACGCGGCCGGAGTCACCTAGTGCAG”, 3290 fluorescence intensity (a.u.).
The value for “ACAAGAGTTTAAATAGTACCAGTACATACAGGTGGCATCTCGGAGTCACCTAGTGCAG” was 3400 fluorescence intensity (a.u.); that for “CACCACGGTCACCTGCCACGCCTTCCAGAACCCGCCTCTCCGGAGTCACCTAGTGCAG” was 5570 fluorescence intensity (a.u.); that for “TTGACGGCACAACTTCACCAATCTGAATCACGGACCGCATCGGAGTCACCTAGTGCAG” was 3400 fluorescence intensity (a.u.).
The value for “CACTCACCTGAATTCACGCATCTGATGGGCCTCAGCTGCTCGGAGTCACCTAGTGCAG” was 4040 fluorescence intensity (a.u.); that for “TCATCCATGAAACTCAGCAGCTTACATCTGGGTCCACCTGCGGAGTCACCTAGTGCAG” was 3390 fluorescence intensity (a.u.); that for “ACTGAATTCACCGTACTGGTGAGTTAAACTTTTCTAATGGCGGAGTCACCTAGTGCAG” was 11900 fluorescence intensity (a.u.).
Turning to “GCCCTACGTGCTACTACTAGTAGTTGTAGAATCGTGCGTGCGGAGTCACCTAGTGCAG”, the binding signal was 3370 fluorescence intensity (a.u.).
For the sequence “ATTAACCATGGTCCACTGGAAATTTCTGGCTCTGAAATTGCGGAGTCACCTAGTGCAG”, the binding signal is 4370 fluorescence intensity (a.u.).
Take “GGCCTGACCCAAAATCGATGACGAGATATAAGGGTACATCCGGAGTCACCTAGTGCAG”: the binding signal was 3500 fluorescence intensity (a.u.).
Take “CAACGCAGCCATGACGCCCAGCCGCGTCAGCGTAGGGCTCCGGAGTCACCTAGTGCAG”: the binding signal was 4820 fluorescence intensity (a.u.).
In the case of “CACCATAATATAAAATTTGGCTCCCAATTAATATCAATCCCGGAGTCACCTAGTGCAG” it was 25000 fluorescence intensity (a.u.); in that of “GGAATTAAAATCAAGTCAGCAAGCCATGTAGATGTCGTGCCGGAGTCACCTAGTGCAG”, 4520 fluorescence intensity (a.u.); in that of “ATATTTAACATTAGTATTGTAGAGACATTCATACGCATGACGGAGTCACCTAGTGCAG”, 3200 fluorescence intensity (a.u.).
For “CTTGCTGTGTTTTCTTCTTCCTCCCTACTACTCGGTTTCTCGGAGTCACCTAGTGCAG”, the binding signal was 4220 fluorescence intensity (a.u.).
For “TCCACCATTGACCAATGCCACGTCCTGCCAAATCCTCCTCCGGAGTCACCTAGTGCAG”, the binding signal is 13600 fluorescence intensity (a.u.).
Turning to “TTTTCCGCGTCTTTTCATCTCACTTACGTGTGGGACCCACCGGAGTCACCTAGTGCAG”, the binding signal is 5790 fluorescence intensity (a.u.).
Consider “GAGACGCGGAGAGTTGACACGGTGTCATTTATTGCGACCCCGGAGTCACCTAGTGCAG”, for which the binding signal was 4030 fluorescence intensity (a.u.).
On to “TAAGTGCAGTTTTAACATTGTTTATGCTCAACGTTTAATCCGGAGTCACCTAGTGCAG”, for which the binding signal is 19400 fluorescence intensity (a.u.).
Regarding “CGGATCCCTGAACGTGTCGTGGGTGTCATATAGGTCCAAGCGGAGTCACCTAGTGCAG”, the binding signal is 3480 fluorescence intensity (a.u.).
In the case of “TTCACCCACGCCACGCCGCCACCGCCTCGCTTTTCCTTCTCGGAGTCACCTAGTGCAG” it was 3180 fluorescence intensity (a.u.); in that of “ACAGGTCATAGAAAGATCGGTGACGGGCTGACGGTGAACGCGGAGTCACCTAGTGCAG”, 4350 fluorescence intensity (a.u.); in that of “CGTATGATTGTTTGCTACCTTATGATGTCAGATTCCTGATCGGAGTCACCTAGTGCAG”, 7010 fluorescence intensity (a.u.).
Regarding “TGACCAAGGCAGCAGCAGCAGCAGCTAGCTAGCTGAGTCACGGAGTCACCTAGTGCAG”, the binding signal was 6750 fluorescence intensity (a.u.).
For “GCCGCCGCCACTTACGCCGACACCCTCCTCCACATCGCCGCGGAGTCACCTAGTGCAG”, the binding signal was 3350 fluorescence intensity (a.u.).
Take “AGCTCGAGACCCTTCCACCTCCGTGTCGTCACCGGAAATCCGGAGTCACCTAGTGCAG”: the binding signal is 3380 fluorescence intensity (a.u.).
“GGGTATACTATGACGTTATAGTGATGTGTATACGTGTACGCGGAGTCACCTAGTGCAG”: the binding signal is 6500 fluorescence intensity (a.u.).
In the case of “CAAGTCGAGACAGCAGGAAGCTGACGCGTTACAAGGTTTGCGGAGTCACCTAGTGCAG” it was 5220 fluorescence intensity (a.u.); in that of “ACTTTGGGGTGCCAAGGTCACGTCACCATCATTCCAACGTCGGAGTCACCTAGTGCAG”, 9270 fluorescence intensity (a.u.).
In the case of “TATGTTTAGTTTCGTTGTATTATGATGTGTACTATGTTGGCGGAGTCACCTAGTGCAG” it was 3990 fluorescence intensity (a.u.); in that of “GACGAAGAGGGAGCTGGACAAAAGATAAGTGGTAGAGGGGCGGAGTCACCTAGTGCAG”, 15400 fluorescence intensity (a.u.).
As to “TGTACGTGCATCCGCGTGGAGCGGGATGCGGGAGCGCAACCGGAGTCACCTAGTGCAG”, the binding signal was 3240 fluorescence intensity (a.u.).
Take “AGTGGACTGGCCGTAGAGGTGTATAATGGCAACATTTGACCGGAGTCACCTAGTGCAG”: the binding signal was 4080 fluorescence intensity (a.u.).
The value for “CACGACGCGGCGGCGGAGGTGTTGCACCGTCAGCCACGCCCGGAGTCACCTAGTGCAG” was 5900 fluorescence intensity (a.u.); that for “GCCAACACACATCATCAGTAGCTAGCTAGCTACCTTTGTGCGGAGTCACCTAGTGCAG” was 3150 fluorescence intensity (a.u.).
